Reference: article PMC10911929
Results are given in words; binding and its absence hold for the method and conditions named. In cells and extracts the contact can be indirect. Here binding means that the protein was enriched with, or labelled near, the bait; the list need not be complete.

Protein sequences, listed by entry. Tags and fused reporters are not part of them.
UniProt P78344: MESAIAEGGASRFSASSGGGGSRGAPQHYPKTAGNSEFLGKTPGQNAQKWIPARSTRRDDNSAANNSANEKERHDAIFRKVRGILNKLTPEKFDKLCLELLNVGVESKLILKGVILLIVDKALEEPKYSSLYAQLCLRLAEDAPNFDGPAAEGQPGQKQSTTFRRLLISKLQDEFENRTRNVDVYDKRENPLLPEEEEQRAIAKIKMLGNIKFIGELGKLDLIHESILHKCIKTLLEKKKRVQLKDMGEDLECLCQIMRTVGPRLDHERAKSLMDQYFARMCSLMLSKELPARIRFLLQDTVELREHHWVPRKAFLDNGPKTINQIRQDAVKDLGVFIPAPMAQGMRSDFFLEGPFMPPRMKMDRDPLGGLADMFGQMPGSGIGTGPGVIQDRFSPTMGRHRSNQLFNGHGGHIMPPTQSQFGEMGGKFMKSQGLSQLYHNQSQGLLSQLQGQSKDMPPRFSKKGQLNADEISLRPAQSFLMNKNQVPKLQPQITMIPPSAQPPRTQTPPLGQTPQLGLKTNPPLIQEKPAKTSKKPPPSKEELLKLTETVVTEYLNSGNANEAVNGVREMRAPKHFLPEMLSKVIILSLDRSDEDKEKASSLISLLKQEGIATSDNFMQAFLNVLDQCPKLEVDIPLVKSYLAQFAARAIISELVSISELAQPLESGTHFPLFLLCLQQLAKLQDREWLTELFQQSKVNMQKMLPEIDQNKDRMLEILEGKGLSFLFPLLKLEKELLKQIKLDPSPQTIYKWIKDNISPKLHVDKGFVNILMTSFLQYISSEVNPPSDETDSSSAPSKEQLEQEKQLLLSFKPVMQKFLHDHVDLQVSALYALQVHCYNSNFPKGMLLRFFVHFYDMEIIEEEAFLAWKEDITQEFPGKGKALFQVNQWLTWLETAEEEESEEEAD

Biological target: T1, DEAD-Box Helicase 1 (DDX1) (human (endogenous in KELLY and IMR5/75)) (UniProt Q92499)
T1 sequence: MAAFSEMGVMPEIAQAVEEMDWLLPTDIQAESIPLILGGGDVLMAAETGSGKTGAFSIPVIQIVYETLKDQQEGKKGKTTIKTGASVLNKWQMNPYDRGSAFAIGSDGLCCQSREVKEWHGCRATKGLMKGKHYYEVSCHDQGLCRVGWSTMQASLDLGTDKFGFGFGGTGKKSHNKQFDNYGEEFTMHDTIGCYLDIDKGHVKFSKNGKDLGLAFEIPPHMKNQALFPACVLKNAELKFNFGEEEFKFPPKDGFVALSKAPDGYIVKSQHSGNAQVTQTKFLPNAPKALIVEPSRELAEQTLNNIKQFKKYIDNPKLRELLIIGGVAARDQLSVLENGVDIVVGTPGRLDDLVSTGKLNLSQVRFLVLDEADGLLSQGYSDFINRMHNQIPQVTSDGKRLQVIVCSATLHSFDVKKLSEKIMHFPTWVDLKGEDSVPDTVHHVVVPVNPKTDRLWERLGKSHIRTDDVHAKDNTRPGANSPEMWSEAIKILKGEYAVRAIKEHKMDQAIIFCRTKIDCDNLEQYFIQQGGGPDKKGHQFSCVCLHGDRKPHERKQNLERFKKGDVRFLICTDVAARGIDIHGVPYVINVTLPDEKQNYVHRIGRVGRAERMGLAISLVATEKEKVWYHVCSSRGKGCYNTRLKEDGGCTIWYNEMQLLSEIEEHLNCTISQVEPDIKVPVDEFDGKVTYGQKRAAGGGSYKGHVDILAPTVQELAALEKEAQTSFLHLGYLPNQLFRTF
Experiment: affinity purification with mass spectrometry; immunoprecipitation of endogenous DDX1 (antibody, Protein A-Sepharose, overnight 4°C) from whole-cell extracts of KELLY (MYCN amplified) and IMR5/75 (DDX1-MYCN coamplified) cells; IgG control; LC-MS/MS, label-free quantitation

eIF4G2 (from UniProt P78344 1-907) was tested. Which binding did it give?
The binding was “binds”.

B1: DLD (protein, UniProt P09622 36-509)
chain: ADQPIDADVTVIGSGPGGYVAAIKAAQLGFKTVCIEKNETLGGTCLNVGCIPSKALLNNSHYYHMAHGKDFASRGIEMSEVRLNLDKMMEQKSTAVKALTGGIAHLFKQNKVVHVNGYGKITGKNQVTATKADGGTQVIDTKNILIATGSEVTPFPGITIDEDTIVSSTGALSLKKVPEKMVVIGAGVIGVELGSVWQRLGADVTAVEFLGHVGGVGIDMEISKNFQRILQKQGFKFKLNTKVTGATKKSDGKIDVSIEAASGGKAEVITCDVLLVCIGRRPFTKNLGLEELGIELDPRGRIPVNTRFQTKIPNIYAIGDVVAGPMLAHKAEDEGIICVEGMAGGAVHIDYNCVPSVIYTHPEVAWVGKSEEQLKEEGIEYKVGKFPFAANSRAKTNADTDGMVKILGQKSTDRVLGAHILGPGAGEMVNEAALALEYGASCEDIARVCHAHPTLSEAFREANLAASFGKSINF
For B1, which binding is on record?
The binding was “binds”.
